Measured values as given in article PMC9247460.
Results are given in words; binding and its absence hold for the method and conditions named. Binding seen in cells or lysates may run through a third protein. Some entries that bind do so weakly or less than the wild type.

Amino acid sequences for entries named in this document (tags omitted). A change or cut given only in a name is not applied to a line headed by its entry.
UniProt P31946: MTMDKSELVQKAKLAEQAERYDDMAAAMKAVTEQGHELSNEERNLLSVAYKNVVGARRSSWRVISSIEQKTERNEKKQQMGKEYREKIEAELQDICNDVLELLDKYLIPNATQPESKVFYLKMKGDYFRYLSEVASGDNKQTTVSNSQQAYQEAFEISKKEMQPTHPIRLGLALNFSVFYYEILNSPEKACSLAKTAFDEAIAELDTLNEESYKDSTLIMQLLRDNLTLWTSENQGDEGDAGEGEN
UniProt Q09472: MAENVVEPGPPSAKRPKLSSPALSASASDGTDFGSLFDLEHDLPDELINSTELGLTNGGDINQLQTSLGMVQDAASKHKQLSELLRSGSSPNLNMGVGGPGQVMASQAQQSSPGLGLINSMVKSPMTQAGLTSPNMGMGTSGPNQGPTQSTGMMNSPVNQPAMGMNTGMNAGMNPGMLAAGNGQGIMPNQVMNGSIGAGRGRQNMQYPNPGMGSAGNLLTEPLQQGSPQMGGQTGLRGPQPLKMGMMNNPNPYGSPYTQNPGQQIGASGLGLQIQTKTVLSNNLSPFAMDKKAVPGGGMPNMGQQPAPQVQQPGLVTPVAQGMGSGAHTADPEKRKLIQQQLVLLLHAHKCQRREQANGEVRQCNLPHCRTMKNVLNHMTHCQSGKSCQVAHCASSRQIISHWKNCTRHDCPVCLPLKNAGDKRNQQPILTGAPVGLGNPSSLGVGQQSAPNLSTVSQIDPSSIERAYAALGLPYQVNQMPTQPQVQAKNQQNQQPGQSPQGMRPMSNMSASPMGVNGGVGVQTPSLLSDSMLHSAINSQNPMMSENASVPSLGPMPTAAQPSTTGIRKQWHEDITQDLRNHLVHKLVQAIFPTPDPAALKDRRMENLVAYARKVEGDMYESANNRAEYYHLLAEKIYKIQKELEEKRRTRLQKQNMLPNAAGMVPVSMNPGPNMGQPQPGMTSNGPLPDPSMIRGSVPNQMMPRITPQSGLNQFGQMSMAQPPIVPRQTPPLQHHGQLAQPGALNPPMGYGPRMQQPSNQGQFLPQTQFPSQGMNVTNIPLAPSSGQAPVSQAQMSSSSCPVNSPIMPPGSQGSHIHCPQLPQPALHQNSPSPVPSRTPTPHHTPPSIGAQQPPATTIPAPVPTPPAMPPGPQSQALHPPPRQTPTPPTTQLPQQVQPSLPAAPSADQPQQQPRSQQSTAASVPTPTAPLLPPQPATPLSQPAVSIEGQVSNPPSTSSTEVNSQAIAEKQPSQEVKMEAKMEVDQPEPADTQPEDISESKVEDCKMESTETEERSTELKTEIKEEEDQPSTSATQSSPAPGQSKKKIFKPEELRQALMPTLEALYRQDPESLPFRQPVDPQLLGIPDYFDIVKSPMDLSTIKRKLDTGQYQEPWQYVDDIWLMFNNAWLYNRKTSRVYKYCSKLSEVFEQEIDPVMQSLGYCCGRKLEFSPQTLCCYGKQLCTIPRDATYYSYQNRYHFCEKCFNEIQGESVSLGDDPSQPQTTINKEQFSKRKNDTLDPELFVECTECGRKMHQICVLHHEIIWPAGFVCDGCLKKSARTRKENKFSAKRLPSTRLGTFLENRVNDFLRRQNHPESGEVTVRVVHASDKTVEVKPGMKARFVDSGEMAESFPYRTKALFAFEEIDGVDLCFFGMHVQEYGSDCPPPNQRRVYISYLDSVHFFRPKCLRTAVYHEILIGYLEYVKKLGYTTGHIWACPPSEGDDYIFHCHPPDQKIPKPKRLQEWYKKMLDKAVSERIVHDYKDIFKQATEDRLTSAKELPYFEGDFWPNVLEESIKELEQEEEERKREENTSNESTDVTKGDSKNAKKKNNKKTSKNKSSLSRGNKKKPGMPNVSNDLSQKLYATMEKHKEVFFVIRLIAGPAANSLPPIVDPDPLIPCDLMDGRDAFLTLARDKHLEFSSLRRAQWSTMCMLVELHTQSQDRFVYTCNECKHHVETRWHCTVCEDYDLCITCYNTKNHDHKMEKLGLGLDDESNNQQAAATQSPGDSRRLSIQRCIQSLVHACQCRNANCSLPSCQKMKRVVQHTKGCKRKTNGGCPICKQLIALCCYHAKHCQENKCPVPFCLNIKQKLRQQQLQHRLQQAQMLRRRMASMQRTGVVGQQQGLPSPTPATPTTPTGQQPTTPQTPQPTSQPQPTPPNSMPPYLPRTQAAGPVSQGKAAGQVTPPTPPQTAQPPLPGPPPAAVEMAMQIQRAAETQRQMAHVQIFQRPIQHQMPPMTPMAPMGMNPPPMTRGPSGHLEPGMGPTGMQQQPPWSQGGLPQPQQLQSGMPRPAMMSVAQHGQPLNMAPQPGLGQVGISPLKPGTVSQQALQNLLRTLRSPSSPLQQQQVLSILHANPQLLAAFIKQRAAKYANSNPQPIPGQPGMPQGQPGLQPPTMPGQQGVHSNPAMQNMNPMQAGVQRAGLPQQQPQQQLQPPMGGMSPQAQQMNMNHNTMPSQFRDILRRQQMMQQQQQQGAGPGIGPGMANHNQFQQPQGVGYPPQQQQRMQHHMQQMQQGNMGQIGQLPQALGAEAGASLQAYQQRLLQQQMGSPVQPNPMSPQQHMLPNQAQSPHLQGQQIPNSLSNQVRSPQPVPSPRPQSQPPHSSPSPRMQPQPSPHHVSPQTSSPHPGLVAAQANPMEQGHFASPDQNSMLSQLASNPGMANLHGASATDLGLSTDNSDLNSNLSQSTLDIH

Target: 14-3-3β/α (YWHAB) (human (endogenous in U87MG)) (UniProt P31946)
Experiment: co-IP; Co-IP of 14-3-3β/α followed by western blot for EP300; endogenous proteins; cell line not named for this panel

binding: binds
Substance: E1A binding protein p300 (EP300) (from UniProt Q09472 1-2414)
